Taken from: PubChem BioAssay AID1259254 (NCATS, 2017)
Screen: 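Finding genes that stop cells copying their DNA twice in one cycle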 (primary screen). System: human HCT116 colorectal cancer cells. Reagents: single siRNA against human genes. Time to read-out: 3 days. Detection: 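Imaged Hoechst DNA stain sorts each cell into a cycle phase by DNA amount; per plate, G2 fraction set to 0% for non-targeting and 100% for GMNN siRNA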. Scale: G2 robust z-score: higher = more G2 cells, more excess DNA replication. Active means: 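Active siRNAs have a G2 robust z of 5 or more median absolute deviations over the median, which in these data means about 38% or higher of GMNN control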.
Shown is an unselected part of about 59,000 deposited reagents. About 1,550 of them (2.6%) were called active. 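G2 share is only a proxy for re-replication; each gene was hit by three separate siRNAs, and active genes were retested.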 The numbers tell different reagents against one gene apart. Not all columns of the deposit are shown. Not given: the amount of reagent.

G2 robust z-score, by gene knocked down and reagent
OR5J2: #1 -1.02 inactive; #2 -0.293 inactive; #3 -0.931 inactive
GPR37L1: #1 0.093 inactive; #2 0.747 inactive; #3 0.184 inactive
ABTB3: #1 2.39 inactive; #2 -0.209 inactive; #3 -0.317 inactive
TNFRSF18: #1 -1.31 inactive; #2 1.12 inactive; #3 -0.108 inactive
FAM9B: #1 -0.578 inactive; #2 0.567 inactive; #3 -0.276 inactive
YES1: #1 0.0651 inactive; #2 1.51 inactive; #3 0.418 inactive

No new results follow: an excerpt of the list.
G2 robust z-score, by gene knocked down and reagent
TNFRSF18: #3 -0.108 inactive
FAM9B: #1 -0.578 inactive; #2 0.567 inactive; #3 -0.276 inactive

More entries:
G2 robust z-score, by gene knocked down and reagent
SLC34A2: #1 -0.893 inactive; #2 1.04 inactive; #3 -0.113 inactive
NAA11: #1 -1.03 inactive; #2 0.0211 inactive; #3 0.245 inactive
NAV3: #1 -0.0473 inactive; #2 0.281 inactive; #3 0.022 inactive
TEX50: #1 -0.793 inactive; #2 0.0879 inactive; #3 3.07 inactive
